PMC8576004
Results are given in words; binding and its absence hold for the method and conditions named. In cells and extracts the contact can be indirect. Some binding calls cover weakened binding; strength is not graded here. For some of these results: Where a sequence is shown, tags or fusion partners need not be part of it.

Columns and labels:
[1] = target: FLAG-tagged USP8 (wild type) (human) (UniProt P40818); assay: co-IP; co-immunoprecipitation of FLAG- and myc-tagged USP8s (Supplementary Fig. 3f)
[2] = target: FLAG-tagged USP8^Δ645–684 (human) (UniProt P40818); assay: as above
[3] = target: single-molecule FRET probe insert-1 (human) (UniProt P40818); assay: FRET or BRET; single-molecule FRET probes in cell lysates: EYFP on the WW-like domain and ECFP inside the USP domain of ONE chain; excitation 433 nm, emission 460-570 nm; trypsinised lysate as negative control; FRET ratio EYFP/ECFP; the paper speculates that the interaction is intramolecular; 100 μM R18 reduced the FRET signal of FRIP8
[4] = target: single-molecule FRET probe insert-3 (human) (UniProt P40818); assay: as above
[5] = target: single-molecule FRET probe insert-4 (human) (UniProt P40818); assay: as above
[6] = target: single-molecule FRET probe insert-5 (human) (UniProt P40818); assay: as above
FRIP8^F1014A (human) = FRIP8^F1014A (human) (UniProt P40818); assay: as above

B1: FLAG-tagged USP8 (wild type) (enzyme, UniProt P40818 1-1118)
chain: MPAVASVPKELYLSSSLKDLNKKTEVKPEKISTKSYVHSALKIFKTAEECRLDRDEERAYVLYMKYVTVYNLIKKRPDFKQQQDYFHSILGPGNIKKAVEEAERLSESLKLRYEEAEVRKKLEEKDRQEEAQRLQQKRQETGREDGGTLAKGSLENVLDSKDKTQKSNGEKNEKCETKEKGAITAKELYTMMTDKNISLIIMDARRMQDYQDSCILHSLSVPEEAISPGVTASWIEAHLPDDSKDTWKKRGNVEYVVLLDWFSSAKDLQIGTTLRSLKDALFKWESKTVLRNEPLVLEGGYENWLLCYPQYTTNAKVTPPPRRQNEEVSISLDFTYPSLEESIPSKPAAQTPPASIEVDENIELISGQNERMGPLNISTPVEPVAASKSDVSPIIQPVPSIKNVPQIDRTKKPAVKLPEEHRIKSESTNHEQQSPQSGKVIPDRSTKPVVFSPTLMLTDEEKARIHAETALLMEKNKQEKELRERQQEEQKEKLRKEEQEQKAKKKQEAEENEITEKQQKAKEEMEKKESEQAKKEDKETSAKRGKEITGVKRQSKSEHETSDAKKSVEDRGKRCPTPEIQKKSTGDVPHTSVTGDSGSGKPFKIKGQPESGILRTGTFREDTDDTERNKAQREPLTRARSEEMGRIVPGLPSGWAKFLDPITGTFRYYHSPTNTVHMYPPEMAPSSAPPSTPPTHKAKPQIPAERDREPSKLKRSYSSPDITQAIQEEEKRKPTVTPTVNRENKPTCYPKAEISRLSASQIRNLNPVFGGSGPALTGLRNLGNTCYMNSILQCLCNAPHLADYFNRNCYQDDINRSNLLGHKGEVAEEFGIIMKALWTGQYRYISPKDFKITIGKINDQFAGYSQQDSQELLLFLMDGLHEDLNKADNRKRYKEENNDHLDDFKAAEHAWQKHKQLNESIIVALFQGQFKSTVQCLTCHKKSRTFEAFMYLSLPLASTSKCTLQDCLRLFSKEEKLTDNNRFYCSHCRARRDSLKKIEIWKLPPVLLVHLKRFSYDGRWKQKLQTSVDFPLENLDLSQYVIGPKNNLKKYNLFSVSNHYGGLDGGHYTAYCKNAARQRWFKFDDHEVSDISVSSVKSSAAYILFYTSLGPRVTDVAT
[1]
  binding: binds

B2: FLAG-tagged USP8^Δ645–684 (enzyme, UniProt P40818)
chain: MPAVASVPKELYLSSSLKDLNKKTEVKPEKISTKSYVHSALKIFKTAEECRLDRDEERAYVLYMKYVTVYNLIKKRPDFKQQQDYFHSILGPGNIKKAVEEAERLSESLKLRYEEAEVRKKLEEKDRQEEAQRLQQKRQETGREDGGTLAKGSLENVLDSKDKTQKSNGEKNEKCETKEKGAITAKELYTMMTDKNISLIIMDARRMQDYQDSCILHSLSVPEEAISPGVTASWIEAHLPDDSKDTWKKRGNVEYVVLLDWFSSAKDLQIGTTLRSLKDALFKWESKTVLRNEPLVLEGGYENWLLCYPQYTTNAKVTPPPRRQNEEVSISLDFTYPSLEESIPSKPAAQTPPASIEVDENIELISGQNERMGPLNISTPVEPVAASKSDVSPIIQPVPSIKNVPQIDRTKKPAVKLPEEHRIKSESTNHEQQSPQSGKVIPDRSTKPVVFSPTLMLTDEEKARIHAETALLMEKNKQEKELRERQQEEQKEKLRKEEQEQKAKKKQEAEENEITEKQQKAKEEMEKKESEQAKKEDKETSAKRGKEITGVKRQSKSEHETSDAKKSVEDRGKRCPTPEIQKKSTGDVPHTSVTGDSGSGKPFKIKGQPESGILRTGTFREDTDDTERNKAQREPLTRARSEEMPSSAPPSTPPTHKAKPQIPAERDREPSKLKRSYSSPDITQAIQEEEKRKPTVTPTVNRENKPTCYPKAEISRLSASQIRNLNPVFGGSGPALTGLRNLGNTCYMNSILQCLCNAPHLADYFNRNCYQDDINRSNLLGHKGEVAEEFGIIMKALWTGQYRYISPKDFKITIGKINDQFAGYSQQDSQELLLFLMDGLHEDLNKADNRKRYKEENNDHLDDFKAAEHAWQKHKQLNESIIVALFQGQFKSTVQCLTCHKKSRTFEAFMYLSLPLASTSKCTLQDCLRLFSKEEKLTDNNRFYCSHCRARRDSLKKIEIWKLPPVLLVHLKRFSYDGRWKQKLQTSVDFPLENLDLSQYVIGPKNNLKKYNLFSVSNHYGGLDGGHYTAYCKNAARQRWFKFDDHEVSDISVSSVKSSAAYILFYTSLGPRVTDVAT
[2]
  binding: binds

B3: single-molecule FRET probe insert-1 (domain or fragment, UniProt P40818 645-1118)
chain: GRIVPGLPSGWAKFLDPITGTFRYYHSPTNTVHMYPPEMAPSSAPPSTPPTHKAKPQIPAERDREPSKLKRSYSSPDITQAIQEEEKRKPTVTPTVNRENKPTCYPKAEISRLSASQIRNLNPVFGGSGPALTGLRNLGNTCYMNSILQCLCNAPHLADYFNRNCYQDDINRSNLLGHKGEVAEEFGIIMKALWTGQYRYISPKDFKITIGKINDQFAGYSQQDSQELLLFLMDGLHEDLNKADNRKRYKEENNDHLDDFKAAEHAWQKHKQLNESIIVALFQGQFKSTVQCLTCHKKSRTFEAFMYLSLPLASTSKCTLQDCLRLFSKEEKLTDNNRFYCSHCRARRDSLKKIEIWKLPPVLLVHLKRFSYDGRWKQKLQTSVDFPLENLDLSQYVIGPKNNLKKYNLFSVSNHYGGLDGGHYTAYCKNAARQRWFKFDDHEVSDISVSSVKSSAAYILFYTSLGPRVTDVAT
[3]
  binding: binds

B4: single-molecule FRET probe insert-3 (domain or fragment, UniProt P40818 645-1118)
chain: GRIVPGLPSGWAKFLDPITGTFRYYHSPTNTVHMYPPEMAPSSAPPSTPPTHKAKPQIPAERDREPSKLKRSYSSPDITQAIQEEEKRKPTVTPTVNRENKPTCYPKAEISRLSASQIRNLNPVFGGSGPALTGLRNLGNTCYMNSILQCLCNAPHLADYFNRNCYQDDINRSNLLGHKGEVAEEFGIIMKALWTGQYRYISPKDFKITIGKINDQFAGYSQQDSQELLLFLMDGLHEDLNKADNRKRYKEENNDHLDDFKAAEHAWQKHKQLNESIIVALFQGQFKSTVQCLTCHKKSRTFEAFMYLSLPLASTSKCTLQDCLRLFSKEEKLTDNNRFYCSHCRARRDSLKKIEIWKLPPVLLVHLKRFSYDGRWKQKLQTSVDFPLENLDLSQYVIGPKNNLKKYNLFSVSNHYGGLDGGHYTAYCKNAARQRWFKFDDHEVSDISVSSVKSSAAYILFYTSLGPRVTDVAT
[4]
  binding: binds

B5: single-molecule FRET probe insert-4 (domain or fragment, UniProt P40818 645-1118)
chain: GRIVPGLPSGWAKFLDPITGTFRYYHSPTNTVHMYPPEMAPSSAPPSTPPTHKAKPQIPAERDREPSKLKRSYSSPDITQAIQEEEKRKPTVTPTVNRENKPTCYPKAEISRLSASQIRNLNPVFGGSGPALTGLRNLGNTCYMNSILQCLCNAPHLADYFNRNCYQDDINRSNLLGHKGEVAEEFGIIMKALWTGQYRYISPKDFKITIGKINDQFAGYSQQDSQELLLFLMDGLHEDLNKADNRKRYKEENNDHLDDFKAAEHAWQKHKQLNESIIVALFQGQFKSTVQCLTCHKKSRTFEAFMYLSLPLASTSKCTLQDCLRLFSKEEKLTDNNRFYCSHCRARRDSLKKIEIWKLPPVLLVHLKRFSYDGRWKQKLQTSVDFPLENLDLSQYVIGPKNNLKKYNLFSVSNHYGGLDGGHYTAYCKNAARQRWFKFDDHEVSDISVSSVKSSAAYILFYTSLGPRVTDVAT
[5]
  binding: binds

B6: single-molecule FRET probe insert-5 (domain or fragment, UniProt P40818 645-1118)
chain: GRIVPGLPSGWAKFLDPITGTFRYYHSPTNTVHMYPPEMAPSSAPPSTPPTHKAKPQIPAERDREPSKLKRSYSSPDITQAIQEEEKRKPTVTPTVNRENKPTCYPKAEISRLSASQIRNLNPVFGGSGPALTGLRNLGNTCYMNSILQCLCNAPHLADYFNRNCYQDDINRSNLLGHKGEVAEEFGIIMKALWTGQYRYISPKDFKITIGKINDQFAGYSQQDSQELLLFLMDGLHEDLNKADNRKRYKEENNDHLDDFKAAEHAWQKHKQLNESIIVALFQGQFKSTVQCLTCHKKSRTFEAFMYLSLPLASTSKCTLQDCLRLFSKEEKLTDNNRFYCSHCRARRDSLKKIEIWKLPPVLLVHLKRFSYDGRWKQKLQTSVDFPLENLDLSQYVIGPKNNLKKYNLFSVSNHYGGLDGGHYTAYCKNAARQRWFKFDDHEVSDISVSSVKSSAAYILFYTSLGPRVTDVAT
[6]
  binding: binds

B7: FRIP8^F1014A (domain or fragment, UniProt P40818 645-1118)
chain: GRIVPGLPSGWAKFLDPITGTFRYYHSPTNTVHMYPPEMAPSSAPPSTPPTHKAKPQIPAERDREPSKLKRSYSSPDITQAIQEEEKRKPTVTPTVNRENKPTCYPKAEISRLSASQIRNLNPVFGGSGPALTGLRNLGNTCYMNSILQCLCNAPHLADYFNRNCYQDDINRSNLLGHKGEVAEEFGIIMKALWTGQYRYISPKDFKITIGKINDQFAGYSQQDSQELLLFLMDGLHEDLNKADNRKRYKEENNDHLDDFKAAEHAWQKHKQLNESIIVALFQGQFKSTVQCLTCHKKSRTFEAFMYLSLPLASTSKCTLQDCLRLFSKEEKLTDNNRFYCSHCRARRDSLKKIEIWKLPPVLLVHLKRASYDGRWKQKLQTSVDFPLENLDLSQYVIGPKNNLKKYNLFSVSNHYGGLDGGHYTAYCKNAARQRWFKFDDHEVSDISVSSVKSSAAYILFYTSLGPRVTDVAT
FRIP8^F1014A (human)
  binding: binds
